For one molecule, TGI results are on record in ChEMBL document CHEMBL3351903, “A potent HDAC inhibitor, 1-alaninechlamydocin, from a Tolypocladium sp. induces G2/M cell cycle arrest and apoptosis in MIA PaCa-2 cells” (J Nat Prod, 2014).

The nature of assay [1]: Antiproliferative activity against human PANC1 cells after 48 hrs by MTT assay. It is filed as functional. As to conditions: PANC-1, 48 h. In short, it runs like this:
(§1)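 Cells held in RPMI with 5% FetalClone III and penicillin/streptomycin (50 U/mL, 50 μg/mL); hTERT-HPNE also given 10 ng/mL recombinant human EGF; used within 3 months of thaw. 48 h compound exposure, DMSO ≤1% final, then MTT. Growth normalized to vehicle (100%) and to density at drug addition (0%); GI50 from nonlinear regression of triplicate wells.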

Assay [2] is described as follows: Antiproliferative activity against human MIAPaCa2 cells after 48 hrs by MTT assay. As to conditions: MIA PaCa-2, 48 h. It counts as functional. In short, it runs like this: as §1

Consider `O=C(CCCCCCC(=O)Nc1ccccc1)NO` [VORINOSTAT], for which the TGI was determined as 3260 nM in assay [1] and 2350 nM in assay [2].
